# Primary screen of a compound library

Amino acid sequences for entries named in this document (tags omitted).
UniProt E9BF75, entry or part of it: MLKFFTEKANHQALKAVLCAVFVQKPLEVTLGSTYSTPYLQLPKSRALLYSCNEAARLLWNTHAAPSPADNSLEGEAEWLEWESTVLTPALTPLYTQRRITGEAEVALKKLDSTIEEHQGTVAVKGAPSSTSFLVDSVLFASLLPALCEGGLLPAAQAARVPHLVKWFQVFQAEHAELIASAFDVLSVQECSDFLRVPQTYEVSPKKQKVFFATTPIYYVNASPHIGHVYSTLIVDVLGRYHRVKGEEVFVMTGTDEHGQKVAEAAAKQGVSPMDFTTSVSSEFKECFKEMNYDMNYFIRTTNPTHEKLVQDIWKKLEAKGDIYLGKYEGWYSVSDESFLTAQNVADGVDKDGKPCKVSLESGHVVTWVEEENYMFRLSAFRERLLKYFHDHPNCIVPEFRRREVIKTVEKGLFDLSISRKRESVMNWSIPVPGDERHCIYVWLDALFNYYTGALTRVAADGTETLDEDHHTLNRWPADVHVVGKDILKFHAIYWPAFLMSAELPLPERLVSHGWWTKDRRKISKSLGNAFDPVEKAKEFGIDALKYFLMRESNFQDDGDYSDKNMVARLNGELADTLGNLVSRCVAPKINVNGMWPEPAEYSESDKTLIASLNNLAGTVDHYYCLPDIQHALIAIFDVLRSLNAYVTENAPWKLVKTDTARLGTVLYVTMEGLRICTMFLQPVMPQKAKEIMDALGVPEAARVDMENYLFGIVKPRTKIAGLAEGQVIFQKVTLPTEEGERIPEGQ

All values are in %. The record does not define 0% and 100%; most values in the screen are far below 50% and negative numbers occur (in some assays of this library far below -100). Compounds were drawn at random from those tested, without regard to their results.

Mtb heat-shock: 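Assay on Mycobacterium tuberculosis, filed only as a heat shock assay from Cornell; the read-out is not stated. The concentration is filed as 10 mM, unlikely as a test dose, so the dose is not known. Higher reads as stronger inhibition (inferred: compounds with an IC50 in retests scored well above the rest). Of about 69,000 compounds tested this way, about 930 (1.4%) reached 50% or more in at least one test.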
LdMetRS: 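Primary screen of methionyl-tRNA synthetase; the read-out is not stated. Target: Methionyl-tRNA synthetase (putative), Leishmania donovani (UniProt E9BF75). The test concentration is not given. Values are per cent inhibition. Of about 68,000 compounds tested this way, about 24 (0.035%) reached 50% or more in at least one test.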
Mtb growth Cornell: 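Whole-cell assay for inhibitors of Mycobacterium tuberculosis growth, labelled Cornell in the record; the read-out is not stated. The concentration is filed as 10 mM, unlikely as a test dose, so the dose is not known. Higher means stronger inhibition (inferred from two other growth screens of the library). Size under these conditions: about 53,000 compounds, about 900 of them at 50% or above in at least one test.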

{"compound": "O=S(=O)(NCCn1cc(C2CCCNC2)nn1)c1ccc(Cl)cc1", "stereo": "stereo not shown", "Mtb heat-shock": -22.46, "LdMetRS": 15.81, "Mtb growth Cornell": 26.49}
{"compound": "CNc1nc(CNC(=O)Nc2cccc(Cl)c2OC)cs1", "Mtb heat-shock": -1.048, "LdMetRS": 16.94}
{"compound": "COc1c(C)cnc(CN2CCCCC2CCN2CCOCC2)c1C", "stereo": "stereo not shown", "Mtb heat-shock": 7.477, "LdMetRS": 11.38, "Mtb growth Cornell": -6.975}
{"compound": "CC(C)CN1C[C@H]2CCN(c3ncccn3)CC[C@H]2S1(=O)=O", "LdMetRS": 11.02}
{"compound": "O=C(O)C(F)(F)F.OCCOCc1ncn2c1CN(Cc1cccs1)CCC2", "Mtb heat-shock": -4.99, "Mtb growth Cornell": -7.383}
{"compound": "CCOC1COC2(CCN(Cc3ccc(F)cc3)CC2)C1", "stereo": "stereo not shown", "LdMetRS": 14.57}
{"compound": "CCOc1ccc2ccccc2c1CNCC1CCS(=O)(=O)C1.Cl", "stereo": "stereo not shown", "Mtb heat-shock": -4.79, "Mtb growth Cornell": -10.59}
{"compound": "CC(=O)Nc1ccc(CNc2ccn(Cc3ccccc3)n2)cc1", "Mtb heat-shock": -7.466, "LdMetRS": 12.84, "Mtb growth Cornell": 37.78}
{"compound": "CCN(CC)C(=O)c1cc(C2(C)CCN(C(C)=O)CC2)nc(C)n1", "Mtb heat-shock": 6.309, "LdMetRS": 7.477, "Mtb growth Cornell": 3.743}
{"compound": "COCCCC1(C(=O)O)CCCN(Cc2cc3c(cc2C)OCCO3)C1", "stereo": "stereo not shown", "Mtb heat-shock": -24.4, "LdMetRS": 13.17, "Mtb growth Cornell": -17.68}
{"compound": "Cc1cnc(C(=O)N2CCc3ncnc(C)c3CC2)cn1", "Mtb heat-shock": -6.065, "LdMetRS": 20.5, "Mtb growth Cornell": 17.99}
{"compound": "O=C1COC2(CCN(S(=O)(=O)C3CC3)CC2)CN1c1ccsc1", "Mtb heat-shock": -16.98, "LdMetRS": 15.85, "Mtb growth Cornell": 9.185}
{"compound": "O=C(NCCn1cccn1)c1nnc2ccccc2n1", "Mtb heat-shock": -0.3217, "LdMetRS": 22.58, "Mtb growth Cornell": -3.301}
{"compound": "O=C(NCCc1ccccn1)N1CCSC2(CCCCC2)C1", "Mtb heat-shock": -16.04, "LdMetRS": 14.58, "Mtb growth Cornell": 18.59}
{"compound": "Cc1nn(C)cc1-c1cc(C(F)(F)F)c2c(C)nn(CC(=O)O)c2n1", "Mtb heat-shock": -15.83, "LdMetRS": 3.846}
{"compound": "Cc1ccccc1N1CCN(c2ccncn2)C(C)C1", "stereo": "stereo not shown", "Mtb heat-shock": 56.56, "LdMetRS": 6.407, "Mtb growth Cornell": 16.47}
{"compound": "Cc1ccsc1CN(C)Cc1ncccc1C(=O)O", "Mtb heat-shock": -10.05, "LdMetRS": 10.51, "Mtb growth Cornell": -5.183}
{"compound": "Cc1ccc(-n2ccnc2-c2cn(C3CCNCC3)nn2)c(Cl)c1", "Mtb heat-shock": -35.58, "LdMetRS": 15, "Mtb growth Cornell": -12.86}
{"compound": "Cc1noc(CN2CCC(c3ccnn3CCO)CC2)n1", "Mtb heat-shock": 14.72, "LdMetRS": 2.347, "Mtb growth Cornell": 13.87}
{"compound": "COc1ncnc(N)c1CNCC(C)Oc1ccccc1Cl", "stereo": "stereo not shown", "Mtb heat-shock": 16.8, "LdMetRS": 16.55, "Mtb growth Cornell": 10.09}
{"compound": "CN(Cc1cccnc1)C(=O)NC1CCN(Cc2ccccn2)CC1", "Mtb heat-shock": -1.377, "LdMetRS": 9.639}
{"compound": "Cc1cnc(CCNC(=O)NCCc2ccc(O)cc2)s1", "Mtb heat-shock": 6.005, "LdMetRS": 19.05, "Mtb growth Cornell": 16.98}
{"compound": "CC(NC(=O)NCc1cc[nH]n1)c1ccc2c(c1)CCC(=O)N2", "stereo": "stereo not shown", "Mtb heat-shock": 3.678, "LdMetRS": 4.453, "Mtb growth Cornell": 11.79}
{"compound": "Cn1cc(N2CCC3(CCN(C(=O)c4cccn4C)C3)C2=O)cn1", "stereo": "stereo not shown", "Mtb heat-shock": -17.35, "LdMetRS": 16.25, "Mtb growth Cornell": -44.28}
{"compound": "CN(C)CC(=O)N1CCCC1c1ccccn1", "stereo": "stereo not shown", "Mtb heat-shock": -7.199, "LdMetRS": 11.84, "Mtb growth Cornell": -4.262}
{"compound": "O=C(Nc1cccc2c1CCCC2)c1cccnc1N1CCCNCC1", "Mtb heat-shock": 18.72, "LdMetRS": 16.39, "Mtb growth Cornell": -1.411}
{"compound": "[H][C@@]12CN(C(C)=O)CCO[C@]1([H])CN(S(=O)(=O)C1CC1)C2", "Mtb heat-shock": 7.834, "Mtb growth Cornell": -6.435}
{"compound": "Cc1ccc(NC2CCN(C(=O)c3ccc(Cl)o3)CC2)nn1", "Mtb heat-shock": 3.491, "LdMetRS": 5.102}
{"compound": "CCCn1cc(-c2ccnc(NC3CCc4ccccc4C3)n2)c(C)n1", "stereo": "stereo not shown", "Mtb heat-shock": -12.44, "LdMetRS": 22.92, "Mtb growth Cornell": 8.734}
{"compound": "COc1cccc(OC2CN(C(=O)Cn3nc4ccccc4n3)C2)c1", "Mtb heat-shock": 11.03, "LdMetRS": 13.4}
{"compound": "CC(C)c1nnsc1CNC(=O)C1CCN(C(=O)C2CCCC2)CC1", "Mtb heat-shock": -10.72, "LdMetRS": 2.241, "Mtb growth Cornell": -10.22}

Some entries from above, unchanged:

| Compound | Mtb heat-shock | LdMetRS | Mtb growth Cornell |
|---|---|---|---|
| `Cc1ccccc1N1CCN(c2ccncn2)C(C)C1` (stereo not shown) | 56.56% | 6.407% | 16.47% |
| `O=C(NCCc1ccccn1)N1CCSC2(CCCCC2)C1` | -16.04% | 14.58% | 18.59% |
| `COc1ncnc(N)c1CNCC(C)Oc1ccccc1Cl` (stereo not shown) | 16.8% | 16.55% | 10.09% |

Measurements from “University of Dundee, Small-Polar-MMV Screening Library” (2021), ChEMBL document CHEMBL3988442.